Library screening results

Results are given as percent effect.
How 0% and 100% were set is not recorded. Most values in the screen are low, and negative values occur.
This is an unselected part of the compounds tested.
A dash means the value is not listed here; it may have been measured.

A: 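Whole-cell assay for inhibitors of Mycobacterium tuberculosis growth, labelled Cornell in the record; the read-out is not stated. The concentration is filed as 10 mM, unlikely as a test dose, so the dose is not known. The record gives no direction; compounds strong in two other growth screens of this library score well above the rest, so higher reads as stronger inhibition. Size under these conditions: about 53,000 compounds, about 900 of them at 50% or above in at least one test.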
B: 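Assay on Mycobacterium tuberculosis, filed only as a heat shock assay from Cornell; the read-out is not stated. The concentration is filed as 10 mM, unlikely as a test dose, so the dose is not known. Direction is inferred from retests: higher values go with stronger inhibition. About 69,000 compounds were tested under these conditions; 1.4% (about 930) showed 50% or more at least once.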

| SMILES | A | B |
|---|---|---|
| `CN(C)C(CNC(=O)NCCc1cccc(O)c1)c1ccco1` (stereo not drawn) | 4.252 | 10.71 |
| `Cc1ccc(-c2nc(CCNC(=O)NC3CCN(C)CC3)co2)cc1` | - | -1.731 |
| `c1ccc(-n2ccc(CN3CCCCC3Cn3cncn3)n2)cc1` (stereo not drawn) | - | 7.685 |
| `Cc1c[nH]nc1C1CCN(S(=O)(=O)N(C)C)CC1` | 2.9 | -6.074 |
| `Cc1cnn(CC(C)NCc2nc(-c3ccsc3)oc2C)c1` (stereo not drawn) | -17.78 | 59.87 |
| `Cc1cc(C)nc(Nc2cccc(C3CCCN(CCO)C3)n2)n1` (stereo not drawn) | -129 | -30.92 |
| `COCCOCCSc1nnc(Cc2ccccc2F)o1` | -3.863 | 5.839 |
| `CN(C)C(=O)C1CCC2(CCN(C(=O)Nc3ccccc3)CC2)O1` (stereo not drawn) | 2.965 | 19.4 |
| `COc1ccc2c(c1)C(=O)NC1(CC2)CCN(Cc2cccnc2)C1` (stereo not drawn) | 10.1 | -4.289 |
| `Cc1ccc(CN2CC(C(=O)Nc3ccccc3)C3(CCOCC3)C2)s1.O=C(O)C(F)(F)F` (stereo not drawn) | 39.07 | 14.28 |
| `Cn1cccc1C(=O)N1CCC2(CCCN2Cc2ccccc2)CC1.O=C(O)C(F)(F)F` | 8.884 | -32.73 |
| `CC(c1ccccn1)N(C)Cc1ccc(-n2ccnc2)cc1` (stereo not drawn) | - | -14.75 |
| `O=c1c2cccnc2cnn1CC(O)c1ccc(Br)cc1` (stereo not drawn) | - | -46.07 |
| `COc1ccccc1CCNC(=O)CNC1CCc2nc(C)nn2C1` (stereo not drawn) | -18.64 | 11.04 |
| `Cc1nccn1-c1ccc(C(C)NCc2cccn2C)cc1` (stereo not drawn) | 26.82 | -2.991 |
| `CCOCCNC(=O)[C@@H]1CCCN1c1nccc(Nc2ccccc2)n1` | -6.303 | 13.1 |
| `COc1cc(CNC(=O)c2cc(S(C)(=O)=O)ccc2C)ccn1` | -7.63 | 6.719 |
| `Cc1nc(C)n(CC2CCCN(Cc3cccc4c3OCCO4)C2)n1` (stereo not drawn) | -11.57 | -13.91 |
| `CN(C)C(=O)c1cnc(-c2ccc3c(c2)OCO3)s1` | 15.12 | 13.82 |
| `C[C@@H](O)[C@H](NC(=O)c1csc2nc(-c3ccccc3F)cn12)C(N)=O` | 12.38 | -11.98 |
| `Cc1ccc(OCC(O)COC2CCOCC2)c(Cl)c1` (stereo not drawn) | 14.88 | -18.92 |
| `CCOCCC(=O)NCC1CCCO1` (stereo not drawn) | -21.21 | 1.449 |
| `O=C(O)C(F)(F)F.O=C(O)C(F)(F)F.O=C(O)C(F)(F)F.c1coc(CN2CCOC3(COCCN(Cc4ccncc4)C3)C2)c1` (stereo not drawn) | -3.258 | -13.01 |
| `Cc1cc(CSCc2csc(CS(C)(=O)=O)n2)no1` | -26.29 | -1.76 |
| `Cc1noc(C)c1CC(=O)OCc1nc(N)c2ccccc2n1` | -29.07 | -1.375 |
| `CC(C)Cc1cc(NC(=O)c2n[nH]c3ccccc23)n(C)n1` | 15.6 | -8.887 |
| `CCc1ccccc1OCCN1C[C@@H](NS(C)(=O)=O)[C@H](C(C)C)C1` | 35.68 | -12.29 |
| `CCNC(=O)N1CCN(c2nc3ccccc3n2C)CC1` | 17.71 | -0.4513 |
| `CCN(C)CC1CCN(C(=O)NCCC2Cc3ccccc3C2)C1` (stereo not drawn) | -2.935 | -28.12 |
| `Cc1occc1C(=O)N1CCC2(CCC(=O)N(CC(N)=O)C2)CC1` | 8.764 | 16.86 |
| `c1csc(-c2noc(CNC3CCc4ncnn4C3)n2)c1` (stereo not drawn) | - | 1.631 |
| `Cc1cc(C)c2[nH]c(=O)c(CN3CCC(O)(CN(C)C)C3)cc2c1` (stereo not drawn) | 15.85 | 8.175 |
| `CCOCC(O)CN1CCN(C(=O)C2CCCC2)CC1` (stereo not drawn) | - | -11.51 |
| `CCc1noc(C(C)N2CCC(N3CCCCC3)CC2)n1` (stereo not drawn) | 0.6992 | -0.7333 |
| `CCC(=O)N1CCC(c2cncc(Oc3cccnc3)n2)CC1` | -1.799 | -19.43 |
| `O=C(c1nc(Cc2c[nH]c3ccccc23)no1)N1CCCCC1` | -4.941 | 12.78 |
| `COCCN1CCOCC2(CCN(c3cnccn3)CC2)C1.O=C(O)C(F)(F)F` | -13.54 | -2.068 |
| `O=C(O)C(F)(F)F.O=C(O)C(F)(F)F.[H][C@@]12CCCO[C@]1([H])[C@@H](OCCN(C)C)CN2CC1CC1` | -20.3 | -15.85 |
| `CCCOC(=O)NCCC1CN(c2cnn(C)c(=O)c2)CCO1` (stereo not drawn) | 8.005 | 5.428 |
| `CC(C)NC(=O)N[C@H]1C[C@@H](c2nc(-c3ccc(F)cc3)no2)N(C)C1` | -8.337 | -41.32 |
| `CCc1noc(C(C)N2CCN(CCc3ccncc3)CC2)n1` (stereo not drawn) | 11.89 | -21.93 |
| `[H][C@]12CC[C@]([H])(CN(c3cnccn3)C1)N(C(=O)c1snnc1C)C2` | -9.216 | -22.49 |
| `CC(O)CN1CC2(CCC1=O)CCN(Cc1cc(F)ccc1Cl)CC2` (stereo not drawn) | -7.401 | -9.78 |
| `Cn1nc(COc2cccnc2)c2c1CCN(CC1CC1)C2.O=C(O)C(F)(F)F.O=C(O)C(F)(F)F` | -1.302 | 24.02 |
| `CNC(=O)COC1COC2(CCN(c3ccc(C#N)cc3)CC2)C1.O=C(O)C(F)(F)F` (stereo not drawn) | 2.426 | -9.195 |
| `CN(C)c1ccccc1CN1CCCC(N2CCCC2=O)C1` (stereo not drawn) | - | -22.44 |
| `[H][C@@]12CCN(C3CCC3)[C@]1([H])CC[C@H](C(=O)NCCc1ccncc1)O2` | -1.059 | -9.283 |
| `Cc1ncsc1-c1nnc(C2CCN(Cc3ccc(F)cc3)CC2)o1` | -1.293 | -10.05 |
| `O=C1CC2(CCN(C(=O)c3ccncc3)CC2)Oc2c(Cl)cc(Cl)cc21` | 23.15 | 11.8 |
| `Cc1cccc(-c2cccc(CC3(C(=O)O)CCOCC3)c2)c1` | -32.06 | -16.11 |
| `Cc1ccc2nc(C(=O)N3CCC(CCn4cccn4)CC3)cn2c1` | -1.395 | -14.87 |
| `Nc1nnc(SCc2cc(=O)n3c4c(sc3n2)CCCC4)[nH]1` | 34.81 | 2.745 |
| `CC(NC(=O)C1=NN(C)C(=O)CC1)c1ccc(Cl)cc1Cl` (stereo not drawn) | 5.86 | 6.678 |
| `COc1ccccc1CC(=O)NS(=O)(=O)c1ccc(C(N)=O)cc1` | 12.37 | 13.36 |
| `CCn1nnc(NCc2ccccc2OCc2ccc(Cl)cc2)n1` | - | 14.01 |
| `Cn1cnc(S(=O)(=O)NCCCN2CCCCCC2=O)c1Cl` | 13.87 | 0.765 |
| `CC(C)Cc1nc(-c2ccnc(N3CCNCC3)n2)no1.Cl.Cl` | 37.59 | -11.54 |
| `OCCNc1nccc(-c2c[nH]nc2-c2cccnc2)n1` | -20.28 | -7.656 |
| `O=S(=O)(NCc1ccnc(-n2ccnc2)c1)c1cncc(F)c1` | 3.509 | -4.921 |
| `CN(Cc1nnc2n1CCC2)C(=O)CCc1ccc2c(c1)OCO2` | - | 9.659 |

3 of the entries, repeated:

| SMILES | A | B |
|---|---|---|
| `Cc1cc(C)nc(Nc2cccc(C3CCCN(CCO)C3)n2)n1` (stereo not drawn) | -129 | -30.92 |
| `CN(C)C(=O)c1cnc(-c2ccc3c(c2)OCO3)s1` | 15.12 | 13.82 |
| `O=C(O)C(F)(F)F.O=C(O)C(F)(F)F.O=C(O)C(F)(F)F.c1coc(CN2CCOC3(COCCN(Cc4ccncc4)C3)C2)c1` (stereo not drawn) | -3.258 | -13.01 |

Data taken from ChEMBL document CHEMBL3988442, “University of Dundee, Small-Polar-MMV Screening Library” (2021).